Values of other authors in patent US20130190365A1, “Use of Deferiprone and Methods to Treat and/or Prevent Friedreich Ataxia Resulting from Intracellular Mishandling of Iron” (priority 2006, published 2013).
For at least one compound, name, drawing or mass did not settle the structure.

Tested on: intracellular iron pools
Details: macrophages, hepatocytes and cardiomyocyte cell lines; cited from earlier work

O=C(O)c1ccc(-n2nc(-c3ccccc3O)nc2-c2ccccc2O)cc1 [deferasirox]
access to intracellular iron pools and chelation in cells: readily enter most cells and efficiently reach the major intracellular sites of iron accumulation
